PubChem BioAssay AID686938, Drosophila RNAi Screening Center – 2013
Assay: 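Knock-downs reducing store-operated calcium influx in Drosophila cells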 (primary screen). System: Drosophila S2R+ cells. Reagent: long dsRNA against Drosophila genes, about 0.25 µg dsRNA per well, roughly 10,000 cells. Duration: 5 days of knock-down before the calcium assay. Challenge: thapsigargin (SERCA pump blocker) to empty calcium stores; entry signal taken 4 min after adding it. Measured: 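Per-well fluo-4 fluorescence in two replicates, unnormalised, measured in resting cells and 4 min after store depletion by the SERCA blocker thapsigargin; ratio of the two present in few wells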. Scale: calcium entry signal: higher = stronger calcium signal after store depletion; entry to resting ratio: higher = more calcium entry relative to resting level; resting calcium signal: higher = higher resting calcium signal. Rule for the call: 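Hit if the duplicate-averaged plate z-score for entry over resting signal is under −3; wells with weak total dye signal (Fmax z < −2) or more than 5 off-targets removed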. Meaning of the calls: active = strongly reduced calcium entry; inactive = no strong reduction.
In all, the deposit lists about 23,000 reagents; this is an unselected part of those with a known target gene and a result. In the full data, 75 (0.33%) were called active. 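Raw plate signals without normalisation; calls rest on plate z-scores that were not deposited; ratio present for only 364 wells.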 Reagents against one gene are numbered here. The record does not give: the dose of the treatment.

Depletion of CG7800 resulted in: calcium entry signal, replicate 1 (fluorescence units) = 5.36e7; calcium entry signal, replicate 2 (fluorescence units) = 3.85e7; resting calcium signal, replicate 1 (fluorescence units) = 2.70e7; resting calcium signal, replicate 2 (fluorescence units) = 2.00e7; inactive.
Against Or85a the deposit lists calcium entry signal, replicate 1 (fluorescence units) = 3.25e7; calcium entry signal, replicate 2 (fluorescence units) = 2.75e7; resting calcium signal, replicate 1 (fluorescence units) = 1.67e7; resting calcium signal, replicate 2 (fluorescence units) = 1.44e7; inactive.
Against CG5196 the deposit lists calcium entry signal, replicate 1 (fluorescence units) = 3.05e7; calcium entry signal, replicate 2 (fluorescence units) = 3.48e7; resting calcium signal, replicate 1 (fluorescence units) = 1.50e7; resting calcium signal, replicate 2 (fluorescence units) = 1.81e7; inactive.
Against GstE8, the entry reads calcium entry signal, replicate 1 (fluorescence units) = 4.10e7; calcium entry signal, replicate 2 (fluorescence units) = 3.21e7; resting calcium signal, replicate 1 (fluorescence units) = 1.91e7; resting calcium signal, replicate 2 (fluorescence units) = 1.60e7; inactive.
Ccm3 scored calcium entry signal, replicate 1 (fluorescence units) = 2.19e7; calcium entry signal, replicate 2 (fluorescence units) = 3.80e7; resting calcium signal, replicate 1 (fluorescence units) = 1.10e7; resting calcium signal, replicate 2 (fluorescence units) = 5.19e7; inactive.
For Arp8 the deposit lists calcium entry signal, replicate 1 (fluorescence units) = 4.41e7; calcium entry signal, replicate 2 (fluorescence units) = 4.82e7; resting calcium signal, replicate 1 (fluorescence units) = 1.98e7; resting calcium signal, replicate 2 (fluorescence units) = 2.27e7; inactive.
Silencing of kl-2 resulted in: calcium entry signal, replicate 1 (fluorescence units) = 4.55e7; calcium entry signal, replicate 2 (fluorescence units) = 4.97e7; resting calcium signal, replicate 1 (fluorescence units) = 2.20e7; resting calcium signal, replicate 2 (fluorescence units) = 1.90e7; inactive.
After knock-down of CG34001 the results were calcium entry signal, replicate 1 (fluorescence units) = 3.71e7; calcium entry signal, replicate 2 (fluorescence units) = 3.34e7; resting calcium signal, replicate 1 (fluorescence units) = 2.07e7; resting calcium signal, replicate 2 (fluorescence units) = 1.54e7; inactive.
For Corin, the values are calcium entry signal, replicate 1 (fluorescence units) = 5.48e7; calcium entry signal, replicate 2 (fluorescence units) = 1.73e7; resting calcium signal, replicate 1 (fluorescence units) = 2.44e7; resting calcium signal, replicate 2 (fluorescence units) = 9.75e6; inactive.
Depletion of IFT46 resulted in: calcium entry signal, replicate 1 (fluorescence units) = 2.77e7; calcium entry signal, replicate 2 (fluorescence units) = 4.54e7; resting calcium signal, replicate 1 (fluorescence units) = 1.53e7; resting calcium signal, replicate 2 (fluorescence units) = 1.95e7; inactive.
Pex5 showed calcium entry signal, replicate 1 (fluorescence units) = 2.74e7; calcium entry signal, replicate 2 (fluorescence units) = 5.52e7; entry to resting ratio 1.9; resting calcium signal, replicate 1 (fluorescence units) = 1.42e7; resting calcium signal, replicate 2 (fluorescence units) = 2.04e7; inactive.
Depletion of Tango11 #1 came out at: calcium entry signal, replicate 1 (fluorescence units) = 2.20e7; calcium entry signal, replicate 2 (fluorescence units) = 4.56e7; resting calcium signal, replicate 1 (fluorescence units) = 1.07e7; resting calcium signal, replicate 2 (fluorescence units) = 1.95e7; inactive.
For Tango11 #2 the deposit lists calcium entry signal, replicate 1 (fluorescence units) = 2.07e7; calcium entry signal, replicate 2 (fluorescence units) = 3.76e7; resting calcium signal, replicate 1 (fluorescence units) = 9.15e6; resting calcium signal, replicate 2 (fluorescence units) = 1.67e7; inactive.
After knock-down of CG4768, the record shows calcium entry signal, replicate 1 (fluorescence units) = 2.32e7; calcium entry signal, replicate 2 (fluorescence units) = 5.09e7; resting calcium signal, replicate 1 (fluorescence units) = 1.10e7; resting calcium signal, replicate 2 (fluorescence units) = 2.14e7; inactive.

Reprinted from above, 2 entries:
CG5196: calcium entry signal, replicate 1 (fluorescence units) = 3.05e7; calcium entry signal, replicate 2 (fluorescence units) = 3.48e7; resting calcium signal, replicate 1 (fluorescence units) = 1.50e7; resting calcium signal, replicate 2 (fluorescence units) = 1.81e7; call = inactive
GstE8: calcium entry signal, replicate 1 (fluorescence units) = 4.10e7; calcium entry signal, replicate 2 (fluorescence units) = 3.21e7; resting calcium signal, replicate 1 (fluorescence units) = 1.91e7; resting calcium signal, replicate 2 (fluorescence units) = 1.60e7; call = inactive
